Measurements published in PMC9501056.
No constants are given. Whether binding was seen depends on the method and setting. Binding seen in cells or lysates may run through a third protein.

Columns and labels:
[1] = target: T1, BEI (Oryza sativa subsp. indica cv. IR36 (endogenous in developing seeds)) (UniProt Q01401); test: co-IP; soluble proteins of developing seeds of WT (IR36) at 5 DAF incubated with isozyme-specific antibodies and protein A magnetic beads; washed with PBS pH 7.4; Western blotting
T1 sequence: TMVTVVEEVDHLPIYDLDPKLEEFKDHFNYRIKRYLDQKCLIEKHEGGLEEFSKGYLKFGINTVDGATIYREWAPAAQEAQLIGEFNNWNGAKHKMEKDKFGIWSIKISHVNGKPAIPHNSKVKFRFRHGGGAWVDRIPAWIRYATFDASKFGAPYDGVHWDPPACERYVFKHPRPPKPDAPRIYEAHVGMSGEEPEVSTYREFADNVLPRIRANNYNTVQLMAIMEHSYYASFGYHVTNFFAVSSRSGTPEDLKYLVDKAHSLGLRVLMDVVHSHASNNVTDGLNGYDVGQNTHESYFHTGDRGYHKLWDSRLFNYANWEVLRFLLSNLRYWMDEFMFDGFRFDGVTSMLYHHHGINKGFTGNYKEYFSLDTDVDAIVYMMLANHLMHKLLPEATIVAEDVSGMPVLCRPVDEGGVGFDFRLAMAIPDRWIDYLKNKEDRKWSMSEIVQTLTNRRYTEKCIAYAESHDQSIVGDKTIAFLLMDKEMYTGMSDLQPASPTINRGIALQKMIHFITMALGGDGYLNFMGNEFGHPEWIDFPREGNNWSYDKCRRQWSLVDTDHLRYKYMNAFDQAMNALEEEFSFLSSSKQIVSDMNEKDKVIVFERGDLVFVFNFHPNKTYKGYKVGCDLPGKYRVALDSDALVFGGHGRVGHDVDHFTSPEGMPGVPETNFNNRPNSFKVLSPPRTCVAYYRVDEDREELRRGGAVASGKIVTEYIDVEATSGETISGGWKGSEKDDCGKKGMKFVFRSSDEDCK

[2] = target: SSIIIa (Oryza sativa subsp. indica cv. IR36 (endogenous in developing seeds)); test: as above
[3] = target: T2, SSIIa (Oryza sativa subsp. indica cv. IR36 (endogenous in developing seeds)) (UniProt P0C586); test: as above
T2 sequence: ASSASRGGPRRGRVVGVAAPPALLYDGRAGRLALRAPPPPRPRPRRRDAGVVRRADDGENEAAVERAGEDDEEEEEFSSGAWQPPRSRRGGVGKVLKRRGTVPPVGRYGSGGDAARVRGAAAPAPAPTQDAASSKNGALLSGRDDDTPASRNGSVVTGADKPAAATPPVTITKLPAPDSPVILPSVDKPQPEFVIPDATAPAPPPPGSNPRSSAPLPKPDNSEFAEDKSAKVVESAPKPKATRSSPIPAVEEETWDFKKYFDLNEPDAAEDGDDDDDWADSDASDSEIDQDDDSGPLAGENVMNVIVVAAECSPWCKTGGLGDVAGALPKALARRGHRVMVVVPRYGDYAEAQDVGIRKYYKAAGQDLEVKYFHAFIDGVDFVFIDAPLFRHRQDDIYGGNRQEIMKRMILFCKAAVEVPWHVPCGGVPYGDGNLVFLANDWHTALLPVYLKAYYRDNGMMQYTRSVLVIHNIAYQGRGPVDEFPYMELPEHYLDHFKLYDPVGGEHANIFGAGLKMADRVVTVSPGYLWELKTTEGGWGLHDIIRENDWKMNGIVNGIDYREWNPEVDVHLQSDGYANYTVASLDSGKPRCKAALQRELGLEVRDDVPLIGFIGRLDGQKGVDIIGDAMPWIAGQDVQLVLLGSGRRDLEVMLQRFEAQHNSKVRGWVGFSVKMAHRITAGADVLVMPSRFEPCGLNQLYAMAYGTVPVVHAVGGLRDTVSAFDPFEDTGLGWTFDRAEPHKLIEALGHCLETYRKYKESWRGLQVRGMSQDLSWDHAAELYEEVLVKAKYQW

[4] = target: T1, BEI (Oryza sativa subsp. indica cv. IR36 (endogenous in developing seeds)); test: co-IP; soluble proteins of developing seeds of the be2b mutant at 10 DAF incubated with isozyme-specific antibodies and protein A magnetic beads; washed with PBS pH 7.4; Western blotting
[5] = target: SSIIIa (Oryza sativa subsp. indica cv. IR36 (endogenous in developing seeds)); test: as above
[6] = target: T2, SSIIa (Oryza sativa subsp. indica cv. IR36 (endogenous in developing seeds)); test: as above
[7] = substrate: T3, SSI (Oryza sativa subsp. indica cv. IR36 (endogenous in developing seeds)) (UniProt A2Y9M4); test: co-IP; soluble proteins of developing seeds of WT (IR36) at 10 DAF incubated with isozyme-specific antibodies and protein A magnetic beads; washed with PBS pH 7.4; Western blotting
T3 sequence: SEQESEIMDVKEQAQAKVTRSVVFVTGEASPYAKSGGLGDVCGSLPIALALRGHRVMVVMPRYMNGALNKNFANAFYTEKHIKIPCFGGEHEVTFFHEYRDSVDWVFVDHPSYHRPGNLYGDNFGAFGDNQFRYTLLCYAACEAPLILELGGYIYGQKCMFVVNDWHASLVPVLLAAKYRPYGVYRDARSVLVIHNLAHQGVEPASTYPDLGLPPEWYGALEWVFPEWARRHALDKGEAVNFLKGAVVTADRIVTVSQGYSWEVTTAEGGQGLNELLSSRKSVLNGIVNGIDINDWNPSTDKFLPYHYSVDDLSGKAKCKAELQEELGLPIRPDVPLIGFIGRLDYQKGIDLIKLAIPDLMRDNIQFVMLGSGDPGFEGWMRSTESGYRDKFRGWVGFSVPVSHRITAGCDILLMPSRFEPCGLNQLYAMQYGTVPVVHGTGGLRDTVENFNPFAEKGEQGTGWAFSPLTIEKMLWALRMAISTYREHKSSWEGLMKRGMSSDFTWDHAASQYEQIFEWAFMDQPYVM

[8] = substrate: T3, ; test: co-IP; soluble proteins of developing seeds of WT (IR36) at 5 DAF incubated with isozyme-specific antibodies and protein A magnetic beads; washed with PBS pH 7.4; Western blotting

binding [1]: no binding
binding [2]: no binding
binding [3]: no binding
binding [4]: no binding
binding [5]: no binding
binding [6]: no binding
binding [7]: no binding
binding [8]: no binding
B1: ISA1 (enzyme, UniProt D0TZF0 55-803)
chain: SVASAVEVGVGEDEEEGVEEEEEEVEAVVMPERYALGGACRVLAGMPAPLGATALDGGVNFAVYSAGASAASLCLFTPDDLEADEVTEEVPLDPLFNRTGNVWHVFIEGELHNMLYGYRFDGMFAPHCGQYFDVSNVVVDPYAKAVISRGEYGVPGPGGDCWPQMAGMIPLPYSTFDWQGDLPLRYPQKDLVIYEMHLRGFTKHSSSNVEHPGTYIGAISKLDYLKELGVNCVELMPCHEFNELEYFSCSSKMNFWGYSTINFFSPMIRYSSGGIRNCGRDAINEFKTFVREAHKRGIEVIMDVVFNHTAEGNEKGPILSFRGIDNSTYYMLAPKGEFYNYSGCGNTFNCNHPVVREFIVDCLRYWVTEMHVDGFRFDLASIMTRGCSLWDPVNVYGSPVEGDMTTTGTPLATPPLIDMISNDPILGDVKLIAEAWDAGGLYQVGQFPHWKIWSEWNGKYRDIVRQFIKGTDGFAGGFAECLCGSPHLYQAGGRKPWHSINFVCAHDGFTLADLVTYNKKYNSSNGEDNRDGENHNLSWNCGEEGEFAGLSVKRLRKRQMRNFFVSLMVSQGVPMFYMGDEYGHTKGGNNNTYCHDHYVNYFRWDKKEESSDLQRFCSLMTKFRKQCESLGLADFPTAQRLHWHGHQPGKPDWSETSRFVAFSTKDETKGEIYVAFNASHLPAVVGLPERPGYRWEPLVDTGKPAPYDFLTDDLPDRAHAVHLFSHFLNSNLYPMLSYSSIILELQPDD
